Source: paper doi:10.1101/241208
No constants are given. Whether binding was seen depends on the method and setting. In cells and extracts the contact can be indirect. For some of these results: Binding can be weak; no strength is given. Sequences can lack the tags named with a protein. Values belong to the molecule of their own block, whether it stands above or below them.

Tests used:
Assay in all cases: co-IP
[1] = target: T1, mycPex19 (mouse Pex19 cloned into pRK5-myc vector) (mouse) (UniProt Q8VCI5)
T1 sequence: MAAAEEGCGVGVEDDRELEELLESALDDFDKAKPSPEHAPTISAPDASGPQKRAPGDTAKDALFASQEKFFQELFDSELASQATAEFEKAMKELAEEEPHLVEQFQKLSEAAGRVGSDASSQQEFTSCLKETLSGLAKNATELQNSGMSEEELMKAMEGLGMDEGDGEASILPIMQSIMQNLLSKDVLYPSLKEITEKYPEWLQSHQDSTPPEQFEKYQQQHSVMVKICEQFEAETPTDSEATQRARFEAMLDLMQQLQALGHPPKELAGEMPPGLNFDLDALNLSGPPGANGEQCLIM

[2] = target: GFPGTP1 (C-terminally anchored GTPase1 domain of Miro1)
[3] = target: GFPEF1-EF2-GTP2 (Miro1 lacking the first GTPase domain)
[4] = target: GFPGTP2 (GTPase2 domain of Miro1)

binding [1]: no binding
Molecule: mycMiro1ΔTM (Miro1 lacking the transmembrane domain) (domain or fragment)

binding [2]: binds
binding [3]: binds
binding [4]: binds
B1: mycPex19 (mouse Pex19 cloned into pRK5-myc vector) (protein, UniProt Q8VCI5-1 1-299)
chain: T1 sequence
